# Where a name gives a salt, the structure may show the parent alone.
# Sequences of proteins named here, by UniProt entry; tags and fusion partners are left off. Residues count along the entry.
# UniProt P52333, 781-1124: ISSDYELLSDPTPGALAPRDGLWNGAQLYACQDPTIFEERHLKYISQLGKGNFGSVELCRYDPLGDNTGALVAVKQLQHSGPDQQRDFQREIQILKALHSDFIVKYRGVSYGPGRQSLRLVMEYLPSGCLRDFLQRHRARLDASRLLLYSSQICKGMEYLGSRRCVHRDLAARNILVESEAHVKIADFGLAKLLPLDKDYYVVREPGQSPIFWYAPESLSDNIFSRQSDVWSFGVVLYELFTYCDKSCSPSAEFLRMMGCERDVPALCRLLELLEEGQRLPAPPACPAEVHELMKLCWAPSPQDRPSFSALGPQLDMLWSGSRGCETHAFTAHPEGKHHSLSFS
# Target: Recombinant human JAK3 catalytic domain (amino acids 781-1124) (Homo sapiens, UniProt P52333)
# Assay: JAK3 inhibition assay
# Assay type: biochemical
# Procedure: After 45 min at 30° C., reactions are stopped by adding 25 μL/well of 150 mM phosphoric acid. […] Plates are washed 6 times with 300 μL per well of a 75 mM phosphoric acid solution and the bottom of the plates is sealed. […] Kinase activity is calculated by subtracting counts per min (cpm) obtained in the presence of a positive control inhibitor (10 μM staurosporine) from cpm obtained in the presence of vehicle. The ability of a test compound to inhibit this activity (or percentage inhibition) is determined as: […]
# cpm test compound=cpm determined for sample with test compound present cpm control=cpm determined for sample with positive control inhibitor cpm vehicle=cpm determined in the presence of vehicle
# Dose dilution series were prepared for the compounds enabling the testing of dose-response effects in the JAK3 assay and the calculation of the IC50 for each compound. Each compound is routinely tested at concentration of 20 μM followed by a 1/5 serial dilution, 10 points in a final concentration of 1% DMSO.
compound,measurement,value
"Cc1cc(C#N)ncc1Oc1cc(Nc2ccc(CN(C)CCN(C)C)cn2)c2ncn(C)c2n1 [Compound 83, 5-[7-[[5-[[2-(dimethylamino)ethyl-methylamino]methyl]pyridin-2-yl]amino]-3-methylimidazo[4,5-b]pyridin-5-yl]oxy-4-methylpyridine-2-carbonitrile formate salt]",IC50,0.368 µM

# Reference: US11564923B2, “Compounds and pharmaceutical compositions thereof for the treatment of inflammatory disorders” (Galapagos NV, priority 2017, dated 2023)
